Data published in PubChem BioAssay AID2685 (National Center for Advancing Translational Sciences (NCATS), 2010).
Some of the results follow. Further columns of the screen follow, without active or inactive calls. Compounds called inactive in the main read-out are mostly missing here. Potencies come from curve fits of mixed quality, noted in brackets.

Test: qHTS Assay for Lipid Storage Modulators in Drosophila S3 Cells;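 for cell number change: cells counted by Cell Tracker Red CMTPX staining in the red channel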
Conditions: BODIPY lipid droplet fluorescence, 18-24 h; for cell number change: measured here: cell count max response, cells fed with added oleic acid
How it was run: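 Drosophila S3 cells loaded with oleic acid (400 uM, as added) and compounds at several concentrations; lipid droplets imaged by 488-nm laser-scanning cytometry, 500–530 nm intensity and object ratio to cell channel. Percent activity normalized to 20 uM Triacsin C.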

[1] = measured here: cell number channel AC50, cells fed with added oleic acid
[2] = measured here: lipid fluorescence (Fed channel) AC50, cells fed with added oleic acid

Structure (SMILES) | cell number change [%] | AC50 [1] | AC50 [2]
O=C(CSc1ccc(-c2ccc3c(c2)OCO3)nn1)Nc1nccs1 | -20.1 | – | –
COc1ccc(CN2CCN(Cc3cccc(Oc4ccccc4)c3)CC2)c(OC)c1OC | -46.9 | 29.1 µM [falling, single point] | –
O=C(NNS(=O)(=O)c1ccccc1F)c1sccc1-n1cccc1 | -7.47 | – | –
NC(=O)Cn1c(=O)n(CCCC(=O)NC2CCN(Cc3ccccc3)CC2)c(=O)c2ccccc21 | -4.9 | 0.00517 µM [falling, full curve, poor fit] | 0.00411 µM [rising, full curve, poor fit]
O=C(Cn1cc(C(F)(F)F)ccc1=O)N1CCc2ccccc2C1 | -1.56 | – | 5.8 µM [rising, full curve]
c1ccc(Nc2nc(-c3ccccc3)ns2)cc1 | -9.52 | 0.00731 µM [falling, full curve, poor fit] | –
O=C1c2ccccc2CC1Sc1nnc(-c2ccncc2)o1 (stereo not given) | 31.9 | 18.4 µM [rising, single point] | –
COc1ccc(C2=NN(C(=O)CCC(=O)O)C(c3ccc(F)cc3)C2)cc1 (stereo not given) | 2.29 | – | 0.411 µM [rising, full curve]
Cc1ccc(S(=O)(=O)N2CCN(CC(=O)N/N=C/c3ccc(C)o3)CC2)cc1 | 11 | – | 0.00461 µM [rising, full curve, poor fit]
CCN1/C(=C/c2ccc3ccccc3[n+]2CCCS(=O)(=O)[O-])C=Cc2cc(C)ccc21 | 6.92 | 2.06 µM [rising, partial curve, poor fit] | –
Cc1ccc(C)c(Oc2nnnn2-c2ccccc2)c1 | 14.9 | – | –
NC(=O)c1ccc(-c2c(-c3ccccc3)sc3ccccc23)cc1 | 19.8 | – | 0.13 µM [rising, full curve]
Cc1ccc2cc(C(c3nnnn3C(C)(C)C)N3CCCCCC3)c(=O)[nH]c2c1 (stereo not given) | 96.3 | 8.2 µM [rising, partial curve] | 3.66 µM [rising, full curve, poor fit]
Clc1ccc(Sc2ccc(/C=N/n3cnnc3)o2)cc1 | 3.07 | – | –
C[N+](C)(C)CCCC(=O)c1ccc2c(c1)OCO2 | -14.8 | 0.116 µM [falling, full curve, poor fit] | –
O=C(CCCNC(=O)c1ccc(Cl)cc1)Nc1cccc(F)c1 | 9.4 | – | 0.0651 µM [falling, full curve, poor fit]
O=C(O)c1ccnc(C(=O)O)c1 | -3.97 | – | 18.4 µM [rising, single point]
COc1ccc(NC(=O)c2coc3ccccc23)cc1OC | 3.13 | – | 0.58 µM [rising, single point]
CSc1ccc(C(=S)N2CCCC2)cc1 | 2.2 | – | –
CCO/N=C(\C)c1c(O)c2ccccc2n(C)c1=O | 8.16 | – | –
Cc1ccc(-c2noc(CSc3nnc(Cc4ccccc4)n3-c3ccc(Cl)cc3)n2)cc1 | -19.5 | – | –

Structure (SMILES) | cell number change [%] | AC50 [1] | AC50 [2]
CC(=O)Nc1ccc(S(=O)(=O)NNC(=O)c2cccc([N+](=O)[O-])c2)cc1 | -3.97 | – | 20.6 µM [rising, single point]
COc1ccc(C(=O)COC(=O)c2sc(C)nc2C)cc1OC | -5.06 | – | 0.00461 µM [rising, full curve, poor fit]
Fc1ccccc1C1CCN(Cc2nc(COc3ccccc3)no2)C1 (stereo not given) | 21.1 | – | 3.66 µM [rising, full curve, poor fit]
COC(=O)Cc1c(C)[nH]n(-c2cc(Cl)cc(Cl)c2)c1=O | -11.1 | – | –
Clc1ccc(C2=CSC3=NCCN23)cc1Cl | 12.1 | – | 1.64 µM [rising, full curve, poor fit]
CCOC(=O)N1CCN(CC(=O)N2CCC(C(N)=O)CC2)CC1 | 23.5 | – | –
Cc1ccc(S(=O)(=O)N2CCCC(c3nc4c(nnn4Cc4ccc5c(c4)OCCO5)c(=O)[nH]3)C2)cc1 (stereo not given) | 8.58 | – | 14.6 µM [falling, partial curve]
COc1ccc(NC(=O)CSc2nnc(-c3ccc(C)cc3)n2N)cc1 | -0.961 | – | 1.03 µM [falling, partial curve]
Cc1cc(OC(C)C(=O)NC2CCN(Cc3ccccc3)CC2)c2c(C)cc(=O)oc2c1 (stereo not given) | 8.56 | – | 4.61 µM [rising, full curve]
COc1cc(/C=N\NC(=O)c2ccc(Cn3cc(Br)c([N+](=O)[O-])n3)o2)cc(OC)c1O | 0.482 | – | 11.6 µM [falling, partial curve, poor fit]
C(/C=C/C=C/Nc1ccccc1)=Nc1ccccc1 | 1.63 | – | 6.51 µM [falling, single point]
O=c1cc(C23CC4CC(CC(C4)C2)C3)[nH][nH]1 | -56.2 | 23.1 µM [falling, single point] | –
Cc1ccc(C)c(N2CCN(S(=O)(=O)c3ccc4c(c3)CC(=O)N4C)CC2)c1 | 2.29 | – | 29.1 µM [rising, single point]
COc1ccc(NC(=O)CSc2nnc(C)n2N)cc1S(=O)(=O)N1CCCCC1 | 15.3 | 0.82 µM [falling, full curve] | 0.82 µM [falling, full curve]
O=C(CO/N=C/c1ccc(OC(F)F)cc1)NC1CCCCC1 | 26.8 | – | –
COc1ccccc1NC(=O)CSc1nc2sc(C)c(C)c2c(=O)n1C | 0.833 | – | 0.517 µM [rising, partial curve, poor fit]
O=c1c2c([N+](=O)[O-])cc([N+](=O)[O-])cc2sn1Cc1ccccc1 | -102 | 5.17 µM [falling, full curve] | 4.61 µM [falling, full curve]
CCCn1nc(NC(=O)c2cccs2)c2cc3cc(OC)ccc3nc21 | – | – | 0.411 µM [rising, full curve]
COc1cc2c(cc1OC)CN(CC(=O)Nc1ccc(F)cc1)C(C(=O)O)C2 (stereo not given) | 17.7 | – | 7.31 µM [rising, single point]
Cc1cccc(CS(=O)(=O)Cc2ccc(C(=O)NC(C)c3ccccc3)o2)c1 (stereo not given) | 2.64 | – | 6.51 µM [falling, single point]

Pulled by compound from the list above, 2 records:
Structure (SMILES) | cell number change [%] | AC50 [1] | AC50 [2]
O=c1cc(C23CC4CC(CC(C4)C2)C3)[nH][nH]1 | -56.2 | 23.1 µM [falling, single point] | –
CCO/N=C(\C)c1c(O)c2ccccc2n(C)c1=O | 8.16 | – | –
